Measured values published in publication PMC6762210.

T1: GrxD^Venus (full-length A. fumigatus monothiol glutaredoxin GrxD, C-terminally tagged with Venus) (A. fumigatus) (UniProt Q4X024)
T1 sequence: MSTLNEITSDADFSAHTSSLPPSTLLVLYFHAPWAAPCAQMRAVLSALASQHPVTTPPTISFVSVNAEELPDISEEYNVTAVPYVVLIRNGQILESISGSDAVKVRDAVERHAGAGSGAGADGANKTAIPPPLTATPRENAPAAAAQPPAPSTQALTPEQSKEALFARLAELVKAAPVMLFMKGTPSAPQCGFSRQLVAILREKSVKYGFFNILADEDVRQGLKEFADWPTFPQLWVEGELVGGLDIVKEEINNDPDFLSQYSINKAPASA

B1: Dre2 (CIA machinery) (protein, UniProt B0XPZ4 1-300)
chain: MAKQTLLLSPPSLSSQPGKLNETLQSYNRNATDLQMLDRLALGLASLPDSAYSSIVILAGGDNSFSESLKLINRQIFNQIIGSLRRGGYIYGQDAVSGIAFDHNEAILAGLIHVGNGKYQKPDIKEMQAVPLRLGRKNDHLAGAPSLQESAAEHPCPPETMISASTMNSNEASDDELINEDNLLDDSELSAPIIQRGPAPECRPKAGKRRRACKDCTCGLAQKLQEEDAVKRADADEQLDAMRLLHDDLAEVDFTVQGKVGSCGNCSLGDAFRCEGCPFIGLPAFQPGEEVRLLNNDVQL
B2: SreA (iron responsive transcription factor) (protein, UniProt Q4WV91 1-546)
chain: MLASVPQMDSVRSLPRNHDVVARHASAEDLDAAQQLISSAQAGREHTTDRHRDEKVTAPVRHQMKTSMNGQRWPEQQRTAPPAEKTSTSPKAQKDTSFLGHSCSNCGTKSTPLWRRSPTGAMICNACGLYLKARNVARPTKRNRMEPGSEAGGQQTGHGIAQSESASQGHCQSNSGGGSCPGGGNCNGTGGAEGCDGCPAYNNRVYKSAARGTVPIHSWRATNSGSDRPLAETENDAGKNGATVEGGNMLVSCQNCGTTVTPLWRRDENGHPICNACGLYYKLHGCYRPTTMKKSIIKRRKRVVPALRDQSPSGATYSSNGSSASPEASPAVLAHSHDDHYRYLSSDPTLQANHQRHYAVAPPPVDFTHFSATGSLSLPHHPPPPRLLEPERLSAPSHSPIPQFGRRSISPSTSGSAKKRTLAETTSSTDTASVPTTLESGSNQLPPIISTANPSPPGRLSSISTLLNHSGPHDESRLDPSLAALSRQQQHHKATPLPPHPPSQPLPGVSELESLKEDRRAKLQREAEEMREMLRAKERELAELGA
B3: CmtA (putative copper metallothionein) (protein, UniProt A4DA78 1-111)
chain: MVHPSSTCCKTSGDGSCVCAAQAKCSCGKENALHCTCSRSAIENTISGPRCSCRARPAGQCTCERAAAENHPVTGDACPCGKRPSTSCTCEKVSAVDAAAEAIETDFTTRA

How the values were obtained:
[1] = target: T1, GrxD^Venus (full-length A. fumigatus monothiol glutaredoxin GrxD, C-terminally tagged with Venus) (A. fumigatus); assay: affinity purification with mass spectrometry; GFP-Trap agarose beads on mycelial crude extracts of A. fumigatus PxylP:grxD^venus or PxylP:grxD^venusΔtrx grown at -Fe, 0.03 mM Fe or 5 mM Fe (22 h, 37°C, xylose-induced); wt extract as control; 4°C, 1 h; washes with up to 500 mM NaCl; nLC-MS/MS with label-free quantification
[2] = target: GrxD^VenusΔTrx (GrxD lacking its Trx domain, C-terminally tagged with Venus) (A. fumigatus); assay: as above

Binder | binding [1] | binding [2]
B1 | binds | 
B2 | binds | 
B3 | binds | binds

Results are given in words; binding and its absence hold for the method and conditions named. Binding seen in cells or lysates may run through a third protein. Here binding means that the protein was enriched with, or labelled near, the bait; the list need not be complete. For some of these results: Tags and fused reporters may be left off the sequences shown.
